Laboratory results taken from the supplement of paper PMC4604168 (melanoma cell lines).
This is one part of the list. Repeats are few or missing, and single values can be far off.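 Imaging used 1,536-well plates; nuclei positive for cleaved PARP by antibody were divided by total DNA-stained nuclei to yield the apoptosis fraction. Doses for screening kept most cells viable, and cell lines differ markedly in resting and induced cleaved-PARP levels.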

Key:
Assay in all cases: cleaved PARP positive nuclei fraction relative to DMSO control; melanoma cells; higher = more apoptosis
Details in all cases: library dose: low library concentration; 72 h
COLO792 = tested on: COLO792
COLO800 = tested on: COLO800
COLO829 = tested on: COLO829
G361 = tested on: G361
IPC-298 = tested on: IPC-298
IST-MEL1 = tested on: IST-MEL1
LB2518-MEL = tested on: LB2518-MEL
LOXIMVI = tested on: LOXIMVI
MEL-HO = tested on: MEL-HO

| SMILES | cleaved PARP positive nuclei fraction (COLO792) | cleaved PARP positive nuclei fraction (COLO800) | cleaved PARP positive nuclei fraction (COLO829) | cleaved PARP positive nuclei fraction (G361) | cleaved PARP positive nuclei fraction (IPC-298) | cleaved PARP positive nuclei fraction (IST-MEL1) | cleaved PARP positive nuclei fraction (LB2518-MEL) | cleaved PARP positive nuclei fraction (LOXIMVI) | cleaved PARP positive nuclei fraction (MEL-HO) |
| --- | --- | --- | --- | --- | --- | --- | --- | --- | --- |
| Cn1cc(C2=C(c3cn(C4CCN(Cc5ccccn5)CC4)c4ccccc34)C(=O)NC2=O)c2ccccc21 [Enzastaurin] + COc1ccc2c(c1)CCC1C2CCC2(C)C(NCCCCCCN3C(=O)C=CC3=O)CCC12 [U73122] (first compound 0.8 µM, partner dose 0.4 µM) | 76.2% | 60.5% | 148% | 64.4% | 124% | 61.2% | 41.7% | 123% |  |
| C[As](C)SC[C@H](NC(=O)CC[C@H](N)C(=O)O)C(=O)NCC(=O)O [Darinaparsin] + OCCn1cc(-c2cnc3nnn(Cc4ccc5ncccc5c4)c3n2)cn1 [PF04217903] (first compound 0.4 µM, partner dose 1 µM) | 80.2% | 84.6% | 144% | 46.3% | 60.5% | 96.4% | 64.3% | 52.2% | 126% |
| CCCS(=O)(=O)Nc1ccc(F)c(C(=O)c2c[nH]c3ncc(Cl)cc23)c1F + C/C(O)=C(\C#N)C(=O)Nc1cc(Br)ccc1Br [LFM-A13] (first compound 0.08 µM, partner dose 2 µM) | 102% | 157% | 89.5% | 63% | 133% | 94.3% | 66.2% | 39.1% |  |
| Nc1ncn([C@H]2C[C@H](O)[C@@H](CO)O2)c(=O)n1 [decitabine] + C/C(O)=C(\C#N)C(=O)Nc1cc(Br)ccc1Br [LFM-A13] (first compound 0.1 µM, partner dose 2 µM) | 125% | 63.5% | 210% | 132% | 82.8% | 156% | 80.4% | 135% |  |
| Cn1cc(C2=C(c3cn(C4CCN(Cc5ccccn5)CC4)c4ccccc34)C(=O)NC2=O)c2ccccc21 [Enzastaurin] + NCC(=O)Nc1ccc(-n2nc(C(F)(F)F)cc2-c2ccc3c(ccc4ccccc43)c2)cc1 [OSU03012] (first compound 0.8 µM, partner dose 1 µM) | 93.5% | 261% | 118% | 68.1% | 127% | 347% | 47.6% | 165% | 131% |
| C[As](C)SC[C@H](NC(=O)CC[C@H](N)C(=O)O)C(=O)NCC(=O)O [Darinaparsin] + COc1cc2c(Oc3ccc4[nH]c(C)cc4c3F)ncnc2cc1OCCCN1CCCC1 [cediranib] (first compound 0.4 µM, partner dose 0.4 µM) | 107% | 58.6% | 42.5% | 116% | 162% | 80.3% | 89% | 106% | 124% |
| Cn1cc(C2=C(c3cn(C4CCN(Cc5ccccn5)CC4)c4ccccc34)C(=O)NC2=O)c2ccccc21 [Enzastaurin] + CN(C)S(=O)(=O)c1ccc2c(c1)/C(=C/c1cc3c([nH]1)CCCC3)C(=O)N2 [SU6656] (first compound 0.8 µM, partner dose 0.4 µM) | 97.7% | 163% | 83.5% | 153% | 174% | 102% | 52.2% | 25% | 66.7% |
| N.N.[Cl][Pt][Cl] [cisplatin] + OCCn1cc(-c2cnc3nnn(Cc4ccc5ncccc5c4)c3n2)cn1 [PF04217903] (first compound 1.6 µM, partner dose 1 µM) | 165% | 126% | 233% | 134% | 30.9% | 141% | 47.5% | 61.2% | 45.4% |
| Cn1cc(C2=C(c3cn(C4CCN(Cc5ccccn5)CC4)c4ccccc34)C(=O)NC2=O)c2ccccc21 [Enzastaurin] + CO[C@@H]1[C@H](N(C)C(=O)c2ccccc2)C[C@H]2O[C@]1(C)n1c3ccccc3c3c4c(c5c6ccccc6n2c5c31)C(=O)NC4 [Midostaurin] (first compound 0.8 µM, partner dose 0.08 µM) | 58% | 146% | 157% | 36.2% | 98.4% | 37.6% | 138% | 845% | 70.8% |
| C[C@]12O[C@H](C[C@]1(O)CO)n1c3ccccc3c3c4c(c5c6ccccc6n2c5c31)CNC4=O [Lestaurtinib] + CO[C@@H]1[C@H](N(C)C(=O)c2ccccc2)C[C@H]2O[C@]1(C)n1c3ccccc3c3c4c(c5c6ccccc6n2c5c31)C(=O)NC4 [Midostaurin] (first compound 0.004 µM, partner dose 0.08 µM) | 212% | 93.5% | 128% | 120% | 89.6% | 91.2% | 62.3% | 360% | 62.5% |
| C[As](C)SC[C@H](NC(=O)CC[C@H](N)C(=O)O)C(=O)NCC(=O)O [Darinaparsin] + Cc1cc(N2CCOCC2)cc2[nH]c(-c3c(NC[C@@H](O)c4cccc(Cl)c4)cc[nH]c3=O)nc12 [BMS536924] (first compound 0.4 µM, partner dose 0.2 µM) | 92.3% | 152% | 208% | 90.2% | 137% | 33.3% | 102% | 62.5% | 72.3% |
| N.N.[Cl][Pt][Cl] [cisplatin] + CC(C)(C)c1cnc(CSc2cnc(NC(=O)C3CCNCC3)s2)o1 [SNS-032] (first compound 1.6 µM, partner dose 0.01 µM) | 128% | 94% | 95.5% | 72.4% | 179% | 31.8% | 58.6% | 130% | 33.9% |
| Cn1cc(C2=C(c3cn(C4CCN(Cc5ccccn5)CC4)c4ccccc34)C(=O)NC2=O)c2ccccc21 [Enzastaurin] + CC1(C)NC(=O)N(c2ccc([N+](=O)[O-])c(C(F)(F)F)c2)C1=O [nilutamide] (first compound 0.8 µM, partner dose 1 µM) | 153% | 209% | 143% | 89.7% | 60.7% | 187% | 44.7% | 74.5% | 121% |
| C[As](C)SC[C@H](NC(=O)CC[C@H](N)C(=O)O)C(=O)NCC(=O)O [Darinaparsin] + CC1(C)NC(=O)N(c2ccc([N+](=O)[O-])c(C(F)(F)F)c2)C1=O [nilutamide] (first compound 0.4 µM, partner dose 1 µM) | 44.4% | 158% | 187% | 175% | 21.8% | 151% | 101% | 129% | 50.2% |
| N.N.[Cl][Pt][Cl] [cisplatin] + CN(C)S(=O)(=O)c1ccc2c(c1)/C(=C/c1cc3c([nH]1)CCCC3)C(=O)N2 [SU6656] (first compound 1.6 µM, partner dose 0.4 µM) | 144% | 23.6% | 74.2% | 65.1% | 43.7% | 107% | 54.5% | 26.9% | 98.7% |
| C[C@]12O[C@H](C[C@]1(O)CO)n1c3ccccc3c3c4c(c5c6ccccc6n2c5c31)CNC4=O [Lestaurtinib] + Cc1ccc(NC(=O)c2cccc(N(C)C)c2)cc1NC(=O)c1ccc(O)cc1 [ZM336372] (first compound 0.004 µM, partner dose 2 µM) | 83.7% | 173% | 156% | 84.4% | 159% | 107% | 50.9% | 83.9% | 138% |
| C[C@]12O[C@H](C[C@]1(O)CO)n1c3ccccc3c3c4c(c5c6ccccc6n2c5c31)CNC4=O [Lestaurtinib] + Cc1cc(N2CCOCC2)cc2[nH]c(-c3c(NC[C@@H](O)c4cccc(Cl)c4)cc[nH]c3=O)nc12 [BMS536924] (first compound 0.004 µM, partner dose 0.2 µM) | 105% | 53.6% | 133% | 134% | 44.6% | 115% | 54.7% | 26.1% | 45.1% |
| N.N.[Cl][Pt][Cl] [cisplatin] + CO[C@@H]1[C@H](N(C)C(=O)c2ccccc2)C[C@H]2O[C@]1(C)n1c3ccccc3c3c4c(c5c6ccccc6n2c5c31)C(=O)NC4 [Midostaurin] (first compound 1.6 µM, partner dose 0.08 µM) | 93.5% | 72.4% | 118% | 133% | 46.6% | 366% | 98.6% | 68.2% | 153% |
| N.N.[Cl][Pt][Cl] [cisplatin] + CN(NC(=O)CC(=O)NN(C)C(=S)c1ccccc1)C(=S)c1ccccc1 [STA4783] (first compound 1.6 µM, partner dose 0.006 µM) | 149% | 58.5% | 83.1% | 129% | 43.5% | 22% | 49.1% | 85.7% | 172% |
| C[C@]12O[C@H](C[C@]1(O)CO)n1c3ccccc3c3c4c(c5c6ccccc6n2c5c31)CNC4=O [Lestaurtinib] + COc1cc2c(Oc3ccc4[nH]c(C)cc4c3F)ncnc2cc1OCCCN1CCCC1 [cediranib] (first compound 0.004 µM, partner dose 0.4 µM) | 150% | 38.8% | 191% | 90.1% | 126% | 50.8% | 85.7% | 16.4% | 59.7% |
| N.N.[Cl][Pt][Cl] [cisplatin] + COc1cc2c(Oc3ccc4[nH]c(C)cc4c3F)ncnc2cc1OCCCN1CCCC1 [cediranib] (first compound 1.6 µM, partner dose 0.4 µM) | 156% | 70.6% | 81.9% | 79.3% | 86% | 34% | 82.6% | 62.7% | 59.8% |
| Cn1cc(C2=C(c3cn(C4CCN(Cc5ccccn5)CC4)c4ccccc34)C(=O)NC2=O)c2ccccc21 [Enzastaurin] + O=C(CCCCCCC(=O)Nc1ccccc1)NO [vorinostat] (first compound 0.8 µM, partner dose 0.08 µM) | 149% | 29.4% | 60% | 122% | 89.2% | 101% | 93.6% | 62.3% | 34.8% |

Rewritten with tabs: entries from further up.
SMILES	cleaved PARP positive nuclei fraction (COLO792)	cleaved PARP positive nuclei fraction (COLO800)	cleaved PARP positive nuclei fraction (COLO829)	cleaved PARP positive nuclei fraction (G361)	cleaved PARP positive nuclei fraction (IPC-298)	cleaved PARP positive nuclei fraction (IST-MEL1)	cleaved PARP positive nuclei fraction (LB2518-MEL)	cleaved PARP positive nuclei fraction (LOXIMVI)	cleaved PARP positive nuclei fraction (MEL-HO)
N.N.[Cl][Pt][Cl] [cisplatin] + OCCn1cc(-c2cnc3nnn(Cc4ccc5ncccc5c4)c3n2)cn1 [PF04217903] (first compound 1.6 µM, partner dose 1 µM)	165%	126%	233%	134%	30.9%	141%	47.5%	61.2%	45.4%
Cn1cc(C2=C(c3cn(C4CCN(Cc5ccccn5)CC4)c4ccccc34)C(=O)NC2=O)c2ccccc21 [Enzastaurin] + CO[C@@H]1[C@H](N(C)C(=O)c2ccccc2)C[C@H]2O[C@]1(C)n1c3ccccc3c3c4c(c5c6ccccc6n2c5c31)C(=O)NC4 [Midostaurin] (first compound 0.8 µM, partner dose 0.08 µM)	58%	146%	157%	36.2%	98.4%	37.6%	138%	845%	70.8%
C[C@]12O[C@H](C[C@]1(O)CO)n1c3ccccc3c3c4c(c5c6ccccc6n2c5c31)CNC4=O [Lestaurtinib] + CO[C@@H]1[C@H](N(C)C(=O)c2ccccc2)C[C@H]2O[C@]1(C)n1c3ccccc3c3c4c(c5c6ccccc6n2c5c31)C(=O)NC4 [Midostaurin] (first compound 0.004 µM, partner dose 0.08 µM)	212%	93.5%	128%	120%	89.6%	91.2%	62.3%	360%	62.5%
C[As](C)SC[C@H](NC(=O)CC[C@H](N)C(=O)O)C(=O)NCC(=O)O [Darinaparsin] + Cc1cc(N2CCOCC2)cc2[nH]c(-c3c(NC[C@@H](O)c4cccc(Cl)c4)cc[nH]c3=O)nc12 [BMS536924] (first compound 0.4 µM, partner dose 0.2 µM)	92.3%	152%	208%	90.2%	137%	33.3%	102%	62.5%	72.3%
N.N.[Cl][Pt][Cl] [cisplatin] + CC(C)(C)c1cnc(CSc2cnc(NC(=O)C3CCNCC3)s2)o1 [SNS-032] (first compound 1.6 µM, partner dose 0.01 µM)	128%	94%	95.5%	72.4%	179%	31.8%	58.6%	130%	33.9%
Cn1cc(C2=C(c3cn(C4CCN(Cc5ccccn5)CC4)c4ccccc34)C(=O)NC2=O)c2ccccc21 [Enzastaurin] + CC1(C)NC(=O)N(c2ccc([N+](=O)[O-])c(C(F)(F)F)c2)C1=O [nilutamide] (first compound 0.8 µM, partner dose 1 µM)	153%	209%	143%	89.7%	60.7%	187%	44.7%	74.5%	121%
